Measured values taken from publication PMC10413933.
These are yes or no findings as the source states them, for the method shown. In cells and extracts the contact can be indirect. These calls come from enrichment with a bait or labelling near it, and not all partners need be listed.

The chains behind the UniProt entries cited, without tags or fusion partners. Where a name states a change or a piece, a line headed by the entry shows the natural chain unless it says otherwise.
UniProt Q9DAK3: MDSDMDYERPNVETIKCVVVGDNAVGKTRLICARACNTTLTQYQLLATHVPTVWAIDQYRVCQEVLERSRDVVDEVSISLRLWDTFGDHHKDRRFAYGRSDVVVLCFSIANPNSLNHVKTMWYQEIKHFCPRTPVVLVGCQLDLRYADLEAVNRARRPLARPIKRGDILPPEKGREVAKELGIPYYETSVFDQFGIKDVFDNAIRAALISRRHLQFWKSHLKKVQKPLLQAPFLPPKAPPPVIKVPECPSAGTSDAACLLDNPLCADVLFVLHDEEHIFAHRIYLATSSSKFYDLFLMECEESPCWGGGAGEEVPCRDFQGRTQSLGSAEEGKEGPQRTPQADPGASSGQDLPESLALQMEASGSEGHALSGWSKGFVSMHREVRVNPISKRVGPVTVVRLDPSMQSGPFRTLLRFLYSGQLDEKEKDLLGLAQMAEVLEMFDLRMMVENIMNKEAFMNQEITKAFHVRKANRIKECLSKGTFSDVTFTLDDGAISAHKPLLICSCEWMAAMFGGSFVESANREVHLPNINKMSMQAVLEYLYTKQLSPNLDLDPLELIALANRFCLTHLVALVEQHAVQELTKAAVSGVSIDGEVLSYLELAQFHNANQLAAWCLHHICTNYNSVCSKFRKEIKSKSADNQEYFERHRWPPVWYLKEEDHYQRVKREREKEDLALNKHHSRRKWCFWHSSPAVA
UniProt P09429: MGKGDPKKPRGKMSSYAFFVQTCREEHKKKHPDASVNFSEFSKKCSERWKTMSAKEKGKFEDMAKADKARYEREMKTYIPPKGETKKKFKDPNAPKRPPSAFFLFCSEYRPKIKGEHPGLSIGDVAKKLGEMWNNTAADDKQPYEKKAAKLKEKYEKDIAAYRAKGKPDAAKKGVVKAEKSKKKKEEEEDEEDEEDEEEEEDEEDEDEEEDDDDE

Biological target: B1B2–APEX2 (APEX2-tagged B1B2, lacking the C terminal region) (UniProt Q9DAK3)
Test: proximity labelling; APEX2 fusion constructs in HEK293 cells, MG132, biotin-phenol and 1 mM H2O2 for 1 min; biotinylated proteins enriched on streptavidin beads and identified by mass spectrometry; B1B2C–APEX2 compared with B1B2–APEX2

- binding: binds
Substance: High Mobility Group Box 1 (HMGB1) (from UniProt P09429 1-215)
